Taken from: PubChem BioAssay AID1224830 (NIAID, 2016)

Purpose: 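Host factors that control LPS-induced TNF expression in human macrophages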 (primary screen)
Cells: human THP-1 monocytic leukaemia cells, TNF dual-luciferase reporter clone, PMA-differentiated to macrophage-like cells
Knock-down reagent: siRNA pool against human genes, 50 nM
Time to read-out: LPS for 4 h, given about 3 days after siRNA transfection
Treatment: bacterial LPS (TLR4 ligand), 10 ng/ml
Read-out: 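TNF firefly reporter luminescence divided by renilla, normalised to the plate median, then turned into a robust z-score for each replicate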
Direction: TNF reporter robust z-score: higher = stronger TNF reporter response to LPS
Active means: 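a well is active when its z-score exceeds 2.8 or falls below -1.5; control wells carry no call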
Shown is an unselected part of about 18,000 reagents tested. In the full data, about 2,900 (16%) are marked active. 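Calls are made per well; low scores hint the gene aids the LPS response, high scores that it dampens it.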 Repeated entries: four replicate wells of each siRNA pool. Reagent sequences are not shown.

The opening 2 entries, to show the layout:
{"gene symbol": "ABCC5", "TNF reporter robust z-score": 0.19, "activity call": "inactive"}
{"gene symbol": "ABCC5", "TNF reporter robust z-score": 1.78, "activity call": "inactive"}

The list itself, from the first entry:
{"gene symbol": "ABCC5", "TNF reporter robust z-score": 0.19, "activity call": "inactive"}
{"gene symbol": "ABCC5", "TNF reporter robust z-score": 1.78, "activity call": "inactive"}
{"gene symbol": "ABCC5", "TNF reporter robust z-score": 1.23, "activity call": "inactive"}
{"gene symbol": "ABCC5", "TNF reporter robust z-score": 0.79, "activity call": "inactive"}
{"gene symbol": "SIM1", "TNF reporter robust z-score": -1.66, "activity call": "active"}
{"gene symbol": "SIM1", "TNF reporter robust z-score": -1.01, "activity call": "inactive"}
{"gene symbol": "SIM1", "TNF reporter robust z-score": -1.31, "activity call": "inactive"}
{"gene symbol": "SIM1", "TNF reporter robust z-score": -0.81, "activity call": "inactive"}
{"gene symbol": "UBE2D1", "TNF reporter robust z-score": 0.36, "activity call": "inactive"}
{"gene symbol": "UBE2D1", "TNF reporter robust z-score": 1.22, "activity call": "inactive"}
{"gene symbol": "UBE2D1", "TNF reporter robust z-score": 0.93, "activity call": "inactive"}
{"gene symbol": "UBE2D1", "TNF reporter robust z-score": 1.18, "activity call": "inactive"}
{"gene symbol": "CTHRC1", "TNF reporter robust z-score": 0.05, "activity call": "inactive"}
{"gene symbol": "CTHRC1", "TNF reporter robust z-score": -0.27, "activity call": "inactive"}
{"gene symbol": "CTHRC1", "TNF reporter robust z-score": 0.3, "activity call": "inactive"}
{"gene symbol": "GPR83", "TNF reporter robust z-score": -0.54, "activity call": "inactive"}
{"gene symbol": "GPR83", "TNF reporter robust z-score": -0.1, "activity call": "inactive"}
{"gene symbol": "GPR83", "TNF reporter robust z-score": 0.76, "activity call": "inactive"}
{"gene symbol": "GPR83", "TNF reporter robust z-score": 0.61, "activity call": "inactive"}
